Measured values taken from paper PMC7542892.
Results are given in words; binding and its absence hold for the method and conditions named. Binding seen in cells or lysates may run through a third protein. Some results given as binding are weak or reduced against the parent protein; the word gives no strength.

Chains of the proteins cited; added tags and fusions are not shown. Residues count along the entry.
UniProt O75460, residues 19-977: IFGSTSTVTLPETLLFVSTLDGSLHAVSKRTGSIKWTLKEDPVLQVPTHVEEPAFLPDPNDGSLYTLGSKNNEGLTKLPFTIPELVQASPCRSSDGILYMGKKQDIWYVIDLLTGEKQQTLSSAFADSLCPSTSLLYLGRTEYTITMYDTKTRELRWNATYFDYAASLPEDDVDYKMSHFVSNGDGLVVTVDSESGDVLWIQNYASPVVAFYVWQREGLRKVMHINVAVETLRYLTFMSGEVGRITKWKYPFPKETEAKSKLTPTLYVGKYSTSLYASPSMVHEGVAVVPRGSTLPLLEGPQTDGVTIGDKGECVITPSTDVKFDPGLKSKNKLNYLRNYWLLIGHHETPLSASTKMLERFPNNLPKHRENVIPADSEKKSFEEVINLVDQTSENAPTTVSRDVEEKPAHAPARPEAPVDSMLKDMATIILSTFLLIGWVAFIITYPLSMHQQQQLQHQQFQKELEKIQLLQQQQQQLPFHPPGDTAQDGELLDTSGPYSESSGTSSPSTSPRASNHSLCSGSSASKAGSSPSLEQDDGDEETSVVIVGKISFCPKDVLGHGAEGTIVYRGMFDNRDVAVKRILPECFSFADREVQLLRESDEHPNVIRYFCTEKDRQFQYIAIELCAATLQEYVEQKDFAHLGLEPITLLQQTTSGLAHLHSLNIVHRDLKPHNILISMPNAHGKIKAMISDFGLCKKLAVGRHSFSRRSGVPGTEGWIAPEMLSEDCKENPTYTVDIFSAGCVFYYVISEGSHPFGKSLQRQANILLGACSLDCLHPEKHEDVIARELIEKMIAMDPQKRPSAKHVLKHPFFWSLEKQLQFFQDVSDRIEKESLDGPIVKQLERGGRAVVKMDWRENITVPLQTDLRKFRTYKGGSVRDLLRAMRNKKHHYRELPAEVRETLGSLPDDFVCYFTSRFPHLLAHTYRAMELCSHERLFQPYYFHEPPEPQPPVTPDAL

Target: inositol-requiring enzyme 1α (human (endogenous in Capan-2 and SW1990)) (UniProt O75460)
Assay: co-IP; lysates of Capan-2 and SW1990 cells, without or with thapsigargin (TG) treatment; magnetic beads preincubated with CRT, IRE1α or IgG antibodies, incubated with soluble supernatants at 4 °C overnight; Western blot

binding: binds
Substance: Calreticulin (from UniProt P27797 18-417)
